# Results of single-concentration screens

Data taken from ChEMBL document CHEMBL3988442, “University of Dundee, Small-Polar-MMV Screening Library” (2021).

Each number is a percent effect as filed.
The record does not define 0% and 100%; most values in the screen are far below 50% and negative numbers occur (in some assays of this library far below -100).
The compounds are a random part of those screened.
Two or more numbers in one place are separate tests of the same structure; such repeats can differ widely.

T. brucei: 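Whole-parasite assay of Trypanosoma brucei over 72 hours; the read-out is not stated. Compounds at 30 µM. Higher reads as stronger inhibition (inferred: compounds with an IC50 in retests scored well above the rest). Values scatter widely below zero; nearly all retest evidence comes from the higher of the two concentrations used. Size under these conditions: about 64,000 compounds, about 940 of them at 50% or above in at least one test.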
Leishmania in macrophages: 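Cell assay of Leishmania donovani living inside macrophages; the read-out is not stated. Compounds at 30 µM. Higher reads as stronger inhibition (inferred: compounds with an IC50 in retests scored well above the rest). Of about 69,000 compounds tested this way, about 1,000 (1.5%) reached 50% or more in at least one test.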

With O=C(c1csc(C2CC2)n1)N1CCCC1Cn1cccn1 (stereo not drawn) the screen gave T. brucei: -17.63%; Leishmania in macrophages: -12.32%.
With O=C(O)c1c(Cl)ncn1-c1cccc2ccccc12 the screen gave T. brucei: -68.51%; Leishmania in macrophages: 32.69%.
With Cc1cc(CN2CCC(CNS(=O)(=O)c3c(C)noc3C)CC2)c(C)o1 the screen gave T. brucei: -14.31%; Leishmania in macrophages: 20.08%.
With N[C@H]1CN(S(=O)(=O)c2cccnc2)C[C@@H]1C1CC1 the screen gave T. brucei: -11.34%; Leishmania in macrophages: 7.519%.
With CCOC(=O)CC1(Nc2nc(C)nc3c2cnn3C)CCCCC1 the screen gave T. brucei: -36.8%; Leishmania in macrophages: 50.84%.
With CN(CC(=O)NCc1cccnc1N1CCCCC1)C(=O)c1cccs1 the screen gave T. brucei: -3.809%; Leishmania in macrophages: 8.624%.
With [H][C@]1([C@H](O)c2ccc(NC(=O)C3CC3)cc2)COCC(=O)N1CC(C)C the screen gave T. brucei: -14.26%; Leishmania in macrophages: 8.972%.
With Cc1cnn(C2CCCN(C(=O)CCc3nccs3)C2)c1 (stereo not drawn) the screen gave T. brucei: -38.44%; Leishmania in macrophages: -0.06757%.
With NC(=O)c1cc2c(nc1N)CCN(C(=O)C1CCCCC1)C2 the screen gave T. brucei: -5.795%; Leishmania in macrophages: 15.17%.
With CC(Cn1cncn1)Nc1ccc(-c2nccn2C)nn1 (stereo not drawn) the screen gave T. brucei: -45.11%; Leishmania in macrophages: 25.3%.
With CCCc1nnnn1CC(=O)NCc1cccc(C)c1 the screen gave T. brucei: -17.19%; Leishmania in macrophages: -5.036%.
With COC(=O)N1CCCC(C(=O)Nc2nc(C)c(SC)s2)C1 (stereo not drawn) the screen gave T. brucei: -23.28%; Leishmania in macrophages: 9.664%.
With O=C(C1CC=CC1)N1Cc2nccn2CC(CN2CCCC2)C1 (stereo not drawn) the screen gave T. brucei: -15.1%; Leishmania in macrophages: 39.56%.
With O=C(O)C(F)(F)F.[H][C@@]12CCN(c3nncs3)[C@@]1([H])CCN2C(=O)CC1CCCC1 the screen gave T. brucei: -61.8%; Leishmania in macrophages: 0.688%.
With COCC(=O)N1CC[C@@H](N2CCOCC2)[C@@H]1Cc1ccccc1 the screen gave T. brucei: -18.85%; Leishmania in macrophages: -13.3%.
With [H][C@@]12CN(C(=O)C3CC=CC3)C[C@]1([H])C(=O)N(CCN(C)C)C2 the screen gave T. brucei: -27.72%; Leishmania in macrophages: 14.43%.
With CCCNC(=O)CCNC(=O)c1ccccc1N1CCOCC1 the screen gave T. brucei: -52.84%; Leishmania in macrophages: 36.77%.
With CCOc1ccc(Cl)c(C(=O)N2CCN(CC(C)(C)O)CC2)n1 the screen gave T. brucei: 0.3648%; Leishmania in macrophages: -0.4678%.
With CCOC1COC2(CCN(c3ncc(C)cn3)CC2)C1 (stereo not drawn) the screen gave T. brucei: -41.98%; Leishmania in macrophages: -10.48%.
With O=C(CC1CC1)NCc1cn2c(n1)CN(Cc1cccc(F)c1)CC2.O=C(O)C(F)(F)F the screen gave T. brucei: -10.39%; Leishmania in macrophages: -11.72%.
With CN1CCN(C(=O)c2n[nH]c3c2CN(C2CCOCC2)CC3)CC1.O=C(O)C(F)(F)F.O=C(O)C(F)(F)F.O=C(O)C(F)(F)F the screen gave T. brucei: -12.86%; Leishmania in macrophages: -4.39%.
With O=C(NCCNc1ccc(C(F)(F)F)cn1)c1ccoc1 the screen gave T. brucei: -6.936%; Leishmania in macrophages: 3.118%.
With Cc1cc(C)c(CNc2ncnc3ccsc23)c(=O)[nH]1 the screen gave T. brucei: -359.4%; Leishmania in macrophages: 21.41%.
With CN1CCN(C(=O)C2SCCc3sccc32)CC1 (stereo not drawn) the screen gave T. brucei: -16.58%; Leishmania in macrophages: -3.768%.
With Cc1noc(C)c1CN(C)C(C)c1cccs1 (stereo not drawn) the screen gave T. brucei: -29.92%; Leishmania in macrophages: 7.338%.
With O=C(CN1CCCC1c1cccs1)N1CCc2sccc2C1 (stereo not drawn) the screen gave T. brucei: -31.75%; Leishmania in macrophages: -10.46%.
With COc1ccc(CNC(=O)Cc2csc(C(C)=O)c2)cc1 the screen gave T. brucei: 10.76%; Leishmania in macrophages: -35.86%.
With Cn1cc(C2=NOC(C(=O)NC3(c4cccc(F)c4)CCCC3)C2)cn1 (stereo not drawn) the screen gave T. brucei: 12.81%; Leishmania in macrophages: 25.47%.
With CCCN1C[C@H](NC(=O)c2cc(C)no2)[C@@H](c2ccc(OC)cc2)C1 the screen gave T. brucei: 1.265%; Leishmania in macrophages: 27.95% and 21.63%.
With CC(C)(CNc1cc(F)ccc1F)S(C)(=O)=O the screen gave T. brucei: -43.75%; Leishmania in macrophages: 10.74%.
With CCN(CC)c1nc2sc(C(=O)NCC(=O)OC)cc2s1 the screen gave T. brucei: 10.73%; Leishmania in macrophages: 8.182%.
With Cl.N[C@@H](Cc1ccccc1)c1nnc(S(=O)(=O)Cc2ccc(Cl)cc2)o1 the screen gave T. brucei: -20.09%; Leishmania in macrophages: -8.745%.
With O=C(O)CC(O)(CC(=O)O)C(=O)O.[H][C@@]12CCCN1C[C@H](CCSC)N(Cc1cnn(CC)c1)C2 the screen gave T. brucei: 8.457%; Leishmania in macrophages: -1.295%.
With CCOc1ncnc2c1CCN(Cc1csc(C)n1)CC2.O=C(O)C(F)(F)F the screen gave T. brucei: -6.796%; Leishmania in macrophages: 25.55%.
With N#Cc1ccc(NCc2cc3n(n2)CCCN(C(=O)C2CCC2)C3)nc1 the screen gave T. brucei: -12.95%; Leishmania in macrophages: 8.211%.
With COCC(O)CNC(=O)c1coc(COc2cccc(F)c2)n1 (stereo not drawn) the screen gave T. brucei: -189.3%; Leishmania in macrophages: 21.3%.
With CC(NC(=O)c1ccoc1)c1ccc2c(c1)CCC(=O)N2 (stereo not drawn) the screen gave Leishmania in macrophages: 17.54%.
With CCCN1CC2(CCN(c3cc(C4CC4)ncn3)CC2)CC1C(=O)O (stereo not drawn) the screen gave T. brucei: 12.68%; Leishmania in macrophages: 36.56%.
With CC(C)c1ncncc1C(=O)N1CCN(Cc2ccsc2)CC1 the screen gave T. brucei: -3.659%; Leishmania in macrophages: 9.776%.
With COc1ccc(CC(=O)N2CCCC(n3cccn3)C2)cc1F (stereo not drawn) the screen gave T. brucei: -6.708%; Leishmania in macrophages: 5.405%.
With CCC(NC(=O)COC)c1ccccc1OCC(=O)N1CCCC1 (stereo not drawn) the screen gave T. brucei: -0.875%; Leishmania in macrophages: 17.64%.
With O=C(O)C(F)(F)F.O=C(O)C(F)(F)F.c1cnc(N2CCCC3(CN(CC4CCOCC4)CCO3)C2)cn1 (stereo not drawn) the screen gave T. brucei: -8.865%; Leishmania in macrophages: -0.4573%.
With Cc1c(C(=O)N2CCCC(n3nnc4cc(F)ccc43)C2)cnn1C (stereo not drawn) the screen gave T. brucei: -9.612%; Leishmania in macrophages: -10.91%.
With CC(C)NC(=O)c1cc2c(s1)CCN2c1ncccn1 the screen gave T. brucei: -71.91%; Leishmania in macrophages: 28.7%.

Once more, the final 3:

O=C(O)C(F)(F)F.O=C(O)C(F)(F)F.c1cnc(N2CCCC3(CN(CC4CCOCC4)CCO3)C2)cn1 (stereo not drawn) read T. brucei: -8.865%; Leishmania in macrophages: -0.4573%.
Cc1c(C(=O)N2CCCC(n3nnc4cc(F)ccc43)C2)cnn1C (stereo not drawn) read T. brucei: -9.612%; Leishmania in macrophages: -10.91%.
CC(C)NC(=O)c1cc2c(s1)CCN2c1ncccn1 read T. brucei: -71.91%; Leishmania in macrophages: 28.7%.